Several values for one entry are separate records, joined by “and”; a condition that tells them apart may be missing. Equal entries are not always repeated. The list shows a part of the results. Repeats are few or missing, and single values can be far off.
Experiments:
[1] = system: MEPP (mouse ovarian epithelium Trp53/Pten KO); assay: cell viability relative to untreated (fraction); higher = less growth inhibition; details: 5 µM; 3 days
[2] = system: PREPP (mouse prostate epithelium Trp53/Pten KO); assay: as above; details: 5 µM; 3 days

SMILES	cell viability [1]	cell viability [2]
C[Si](C)(C)CCOCn1ccc2c(-c3cn[nH]c3)ncnc21	0.919	0.937
O=C1CC[C@H](C(=O)O)N1	0.953	0.916
Cc1cc(NS(=O)(=O)c2ccc(N)cc2)no1	0.803 and 1.32	0.932 and 0.93
OCc1ccc(O[C@@H]2O[C@H](CO)[C@@H](O)[C@H](O)[C@H]2O)cc1	1.05	0.986
C[C@@H]1O[C@@H](O[C@H]2[C@H](Oc3cc(O)c4c(=O)cc(-c5ccc(O)cc5)oc4c3)O[C@H](CO)[C@@H](O)[C@@H]2O)[C@H](O)[C@H](O)[C@H]1O	0.98	0.943
N=C(N)NCCC[C@H](N)C(=O)O	1.27	1.07
Nc1ccc(S(=O)(=O)Nc2ncccn2)cc1	1.03	1.07
Nc1ccc(S(=O)(=O)Nc2cnc3ccccc3n2)cc1	0.885	1.2
Cc1cc(O)c2c(c1)C(=O)c1cc(O)cc(O)c1C2=O	1.11	0.853
C=C(CC(=O)O)C(=O)O	1.1	1.08
COc1cc(/C=C/C(=O)O)ccc1O	0.999 and 0.944	1.13 and 1.16
O=C(O)c1ccc(O)cc1O	1.5	0.92
Cc1c(C)c2c(c(C)c1O)CCC(C)(CCCC(C)CCCC(C)CCCC(C)C)O2 (centres undefined)	0.884	0.931
COC(=O)CCC(=O)CN	0.915	0.933
CC1=C(C(=O)O)N2C(=O)[C@@H](NC(=O)[C@H](N)c3ccccc3)[C@H]2SC1	1.41	0.977
COc1ccc(CC(=O)O)cc1O	0.879	1.33
COc1cccc(/C=N/N(C(=O)C(F)(F)F)c2ccc(C)cc2C)c1	0.991	0.868

Part of the list above, as a markdown table:

| SMILES | cell viability [1] | cell viability [2] |
| --- | --- | --- |
| Cc1c(C)c2c(c(C)c1O)CCC(C)(CCCC(C)CCCC(C)CCCC(C)C)O2 (centres undefined) | 0.884 | 0.931 |
| COC(=O)CCC(=O)CN | 0.915 | 0.933 |

Reference: the supplement of paper PMC12873370
